Results are given in words; binding and its absence hold for the method and conditions named. Binding seen in cells or lysates may run through a third protein. Some results given as binding are weak or reduced against the parent protein; the word gives no strength.
Target: N-cadherin (mouse (endogenous in hippocampus)) (UniProt P15116)
Assay: co-IP; N-cadherin immunoprecipitated with a specific monoclonal antibody from hippocampal homogenates of adult WT and PTP1B KO mice; mild lysis buffer (20 mM Tris.HCl pH 7.4, 150 mM NaCl, 1% NP40, protease and phosphatase inhibitors), overnight at 4°C, protein A agarose; blots probed for ß-catenin or GluR1 and re-probed for N-cadherin; five animals

The chains behind the UniProt entries cited, without tags or fusion partners. Residues count along the entry.
UniProt P15116, residues 160-906: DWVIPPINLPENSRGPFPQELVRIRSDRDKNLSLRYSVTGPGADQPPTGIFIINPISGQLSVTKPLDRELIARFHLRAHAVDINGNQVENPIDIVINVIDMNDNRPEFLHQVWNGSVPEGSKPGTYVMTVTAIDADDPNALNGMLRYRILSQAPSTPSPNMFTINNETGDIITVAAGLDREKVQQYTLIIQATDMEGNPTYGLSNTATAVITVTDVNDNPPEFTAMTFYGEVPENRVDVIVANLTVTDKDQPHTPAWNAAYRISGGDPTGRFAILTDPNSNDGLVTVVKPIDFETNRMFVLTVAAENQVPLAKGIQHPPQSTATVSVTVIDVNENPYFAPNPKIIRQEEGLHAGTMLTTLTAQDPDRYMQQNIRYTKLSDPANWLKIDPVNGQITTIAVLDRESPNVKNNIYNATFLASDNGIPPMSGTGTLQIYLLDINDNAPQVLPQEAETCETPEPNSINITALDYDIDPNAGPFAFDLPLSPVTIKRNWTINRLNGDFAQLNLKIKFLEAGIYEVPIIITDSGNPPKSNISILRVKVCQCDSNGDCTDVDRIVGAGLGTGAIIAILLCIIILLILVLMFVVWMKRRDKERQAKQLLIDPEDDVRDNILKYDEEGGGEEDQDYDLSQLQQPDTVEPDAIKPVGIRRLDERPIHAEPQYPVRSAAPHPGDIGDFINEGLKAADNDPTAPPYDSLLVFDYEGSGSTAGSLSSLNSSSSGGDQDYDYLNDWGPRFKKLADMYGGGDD
UniProt Q02248: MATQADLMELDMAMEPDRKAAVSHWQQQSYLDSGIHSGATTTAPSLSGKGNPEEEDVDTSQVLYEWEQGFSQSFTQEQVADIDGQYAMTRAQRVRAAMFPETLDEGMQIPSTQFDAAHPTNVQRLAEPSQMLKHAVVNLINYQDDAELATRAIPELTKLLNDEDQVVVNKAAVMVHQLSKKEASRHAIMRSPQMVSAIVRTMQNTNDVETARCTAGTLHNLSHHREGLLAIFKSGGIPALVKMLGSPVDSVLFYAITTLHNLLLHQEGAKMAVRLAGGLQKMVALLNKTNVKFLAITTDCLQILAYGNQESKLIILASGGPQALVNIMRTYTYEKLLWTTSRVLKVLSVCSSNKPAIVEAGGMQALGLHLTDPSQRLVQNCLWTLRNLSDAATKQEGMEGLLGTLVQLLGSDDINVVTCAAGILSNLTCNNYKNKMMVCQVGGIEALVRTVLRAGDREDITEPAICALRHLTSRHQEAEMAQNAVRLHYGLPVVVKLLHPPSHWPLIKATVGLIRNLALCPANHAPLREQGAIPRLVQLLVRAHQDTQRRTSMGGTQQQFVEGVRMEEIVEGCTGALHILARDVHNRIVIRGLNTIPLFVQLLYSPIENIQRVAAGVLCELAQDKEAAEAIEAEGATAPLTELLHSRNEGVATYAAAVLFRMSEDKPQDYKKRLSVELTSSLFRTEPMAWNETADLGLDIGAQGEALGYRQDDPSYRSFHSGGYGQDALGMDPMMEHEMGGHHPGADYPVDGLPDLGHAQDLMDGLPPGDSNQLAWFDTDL

ß-catenin (from UniProt Q02248 1-781)
binding: binds

— publication PMC3402386
